Source: the supplement of paper PMC3682954
Counter-ions that a name gives are not always drawn. ± gives the standard deviation of the averaged measurements. The list shows a part of the results. Repeats are few or missing, and single values can be far off.

System: RAW 264.7
Assay: HMGB1-induced TNF-alpha production relative to HMGB1-stimulated control; higher = more TNF-alpha secretion (less inhibition)
Conditions: stimulus: HMGB1 5 ug/ml, 18 h
[1] = compound concentration: 1 ug/ml

Row | SMILES | HMGB1-induced TNF-alpha production (compound concentration: 3 uM) [%] | HMGB1-induced TNF-alpha production [1] [%]
1 | C(=C\c1ccccc1)/CN1CCN(C(c2ccccc2)c2ccccc2)CC1 [Cinnarizine] | 71.5 ± 20 | 
2 | CO[C@H]1/C=C/O[C@@]2(C)Oc3c(C)c(O)c4c(O)c(cc(O)c4c3C2=O)NC(=O)/C(C)=C\C=C\[C@H](C)[C@H](O)[C@@H](C)[C@@H](O)[C@@H](C)[C@H](OC(C)=O)[C@@H]1C [Rifamycin SV sodium salt] |  | 68.7
3 | CO[C@H]1/C=C/O[C@@]2(C)Oc3c(C)c(O)c4c(O)c(cc(O)c4c3C2=O)NC(=O)/C(C)=C\C=C\[C@H](C)[C@H](O)[C@@H](C)[C@@H](O)[C@@H](C)[C@H](OC(C)=O)[C@@H]1C | 85.2 | 
4 | O=C(C1CCCCC1)N1CC(=O)N2CCc3ccccc3C2C1 (stereo not drawn) | 90.1 | 
5 | O=C(C1CCCCC1)N1CC(=O)N2CCc3ccccc3C2C1 (stereo not drawn) [Praziquantel] | 91.9 ± 19 | 
6 | OC[C@H]1O[C@H](O[C@]2(CCl)O[C@H](CCl)[C@@H](O)[C@@H]2O)[C@H](O)[C@@H](O)[C@H]1Cl | 88 | 
7 | O=C(O)c1cc(=O)cc(C(=O)O)[nH]1 [Chelidamic acid] | 85.8 | 
8 | Nc1nc2ccc(OC(F)(F)F)cc2s1 [Riluzole] | 106 ± 3.7 | 
9 | Nc1nc2ccc(OC(F)(F)F)cc2s1 [Riluzole hydrochloride] | 88.8 | 
10 | COc1ccc2c(c1)c(CC(=O)O)c(C)n2C(=O)c1ccc(Cl)cc1 [Indomethacin] | 93.1 ± 18 | 
11 | COc1ccc2c(c1)c(CC(=O)O)c(C)n2C(=O)c1ccc(Cl)cc1 | 91.7 | 
12 | COc1ccc(-c2cc(=O)c3ccc4ccccc4c3o2)cc1OC [3',4'-Dimethoxy-a-naphthoflavone] |  | 98.3
13 | CCOC(=O)C1(CCCCCCOc2ccc(Cl)cc2)CO1 (stereo not drawn) | 93.9 | 
14 | CC(C)(C)NCC(O)COc1cccc2c1CCC(=O)N2 (stereo not drawn) [Carteolol hydrochloride] | 65.6 | 
15 | C=C1c2c(Cl)ccc(O)c2C(=O)C2=C(O)[C@]3(O)C(=O)C(C(N)=O)=C(O)[C@@H](N(C)C)[C@@H]3[C@@H](O)[C@H]12.O=C(O)c1cc(S(=O)(=O)O)ccc1O [Meclocycline sulfosalicylate] | 83.3 | 
16 | C=C1c2c(Cl)ccc(O)c2C(=O)C2=C(O)[C@]3(O)C(=O)C(C(N)=O)=C(O)[C@@H](N(C)C)[C@@H]3[C@@H](O)[C@H]12.O=C(O)c1cc(S(=O)(=O)O)ccc1O | 100 | 
17 | CC(C)C[C@H](NC(=O)[C@H](O)[C@H](N)Cc1ccccc1)C(=O)O [Epibestatin hydrochloride] | 92.5 | 
18 | CC(=O)NCCCS(=O)(=O)O | 97.7 | 
19 | COc1ccc2c(c1OC)C(=O)O[C@@H]2[C@H]1c2c(cc3c(c2OC)OCO3)CCN1C [Noscapine hydrochloride hydrate  (Narcotine)] |  | 73.2
20 | COc1ccc2c(c1OC)C(=O)O[C@@H]2[C@H]1c2c(cc3c(c2OC)OCO3)CCN1C | 100 | 
21 | COc1ccc2c(c1OC)C(=O)O[C@@H]2[C@H]1c2c(cc3c(c2OC)OCO3)CCN1C [Noscapine hydrchloride] | 123 | 

Reprinted at random: two entries already listed, in no set order.
Row | SMILES | HMGB1-induced TNF-alpha production (compound concentration: 3 uM) [%] | HMGB1-induced TNF-alpha production [1] [%]
16 | C=C1c2c(Cl)ccc(O)c2C(=O)C2=C(O)[C@]3(O)C(=O)C(C(N)=O)=C(O)[C@@H](N(C)C)[C@@H]3[C@@H](O)[C@H]12.O=C(O)c1cc(S(=O)(=O)O)ccc1O | 100 | 
9 | Nc1nc2ccc(OC(F)(F)F)cc2s1 [Riluzole hydrochloride] | 88.8 | 

The results go on:

Row | SMILES | HMGB1-induced TNF-alpha production (compound concentration: 3 uM) [%] | HMGB1-induced TNF-alpha production [1] [%]
22 | CCCCCCCCCCCCCCCC(=O)OC(CC(=O)O)C[N+](C)(C)C (racemic) [Palmitoyl-DL-Carnitine chloride] | 98.4 | 
23 | CCOC(=O)O[C@]1(C(=O)COC(=O)CC)CC[C@H]2[C@@H]3CCC4=CC(=O)C=C[C@]4(C)[C@H]3[C@@H](O)C[C@@]21C [Prednicarbate] | 56.3 | 
24 | CC(=O)NS(=O)(=O)c1ccc(NC(=O)c2ccccc2C(=O)O)cc1 | 101 | 
25 | CC[C@H](C)[C@H](N)C1=N[C@H](C(=O)N[C@@H](CC(C)C)C(=O)N[C@H](CCC(=O)O)C(=O)N[C@H](C(=O)N[C@H]2CCCCNC(=O)[C@H](CC(N)=O)NC(=O)[C@@H](CC(=O)O)NC(=O)[C@H](Cc3cnc[nH]3)NC(=O)[C@@H](Cc3ccccc3)NC(=O)[C@H]([C@@H](C)CC)NC(=O)[C@@H](CCCN)NC2=O)[C@@H](C)CC)CS1 | 92.2 | 
26 | CC[C@H](C)[C@H](N)C1=N[C@H](C(=O)N[C@@H](CC(C)C)C(=O)N[C@H](CCC(=O)O)C(=O)N[C@H](C(=O)N[C@H]2CCCCNC(=O)[C@H](CC(N)=O)NC(=O)[C@@H](CC(=O)O)NC(=O)[C@H](Cc3cnc[nH]3)NC(=O)[C@@H](Cc3ccccc3)NC(=O)[C@H]([C@@H](C)CC)NC(=O)[C@@H](CCCN)NC2=O)[C@@H](C)CC)CS1 [Bacitracin] | 111 | 
27 | O=C(CCc1ccc(O)cc1)c1c(O)cc(O)cc1O [Phloretin] | 110 | 85.1 ± 20
28 | CN1CCN(CCCN2c3ccccc3Sc3ccc(C(F)(F)F)cc32)CC1 [Trifluoperazine dihydrochloride] | 87 ± 11 | 
29 | CN1CCN(CCCN2c3ccccc3Sc3ccc(C(F)(F)F)cc32)CC1 [Trifluoperazine 2HCl] | 83.2 | 
30 | CN(C)CCN1C(=O)c2ccccc2N(C)c2ccccc21 [Dibenzepine hydrochloride] | 75.8 | 
31 | COc1ccc(OC)c(C(O)CNC(=O)CN)c1 (stereo not drawn) [Midodrine hydrochloride] | 54 | 
32 | COc1ccc(OC)c(C(O)CNC(=O)CN)c1 (stereo not drawn) | 88.9 | 
33 | CNC[C@H](O)c1ccc(O)c(O)c1 [(-)-Epinephrine bitartrate] | 48.4 | 
34 | CNC[C@H](O)c1ccc(O)c(O)c1 | 49.2 | 
35 | CN(C(=O)C(Cl)Cl)c1ccc(OC(=O)c2ccco2)cc1 [Diloxanide furoate] | 94.5 | 
36 | CN(C(=O)C(Cl)Cl)c1ccc(OC(=O)c2ccco2)cc1 | 84.6 ± 8.8 | 
37 | Nc1ccn([C@H]2CC[C@@H](CO)O2)c(=O)n1 [2',3'-Dideoxycytidine] |  | 83.2
38 | Nc1ccn([C@H]2CC[C@@H](CO)O2)c(=O)n1 [2',3'-dideoxycytidine] | 85.3 | 
39 | Nc1ccn([C@H]2CC[C@@H](CO)O2)c(=O)n1 [Zalcitabine] | 103 | 
40 | Nc1ccn([C@H]2CC[C@@H](CO)O2)c(=O)n1 [2',3' - Dideoxycytidine] | 98.4 | 
41 | Nc1ccn([C@H]2CC[C@@H](CO)O2)c(=O)n1 | 109 | 
42 | CCCCCCCCCCCCCCC[C@H](O)[C@H](N)CO (racemic) [DL-erythro-Dihydrosphingosine] | 89.6 | 
